This is an account of results in publication PMC11674933.

Sequences of proteins named here, by UniProt entry; tags and fusion partners are left off. Residues count along the entry.
UniProt Q9P126, residues 55-229: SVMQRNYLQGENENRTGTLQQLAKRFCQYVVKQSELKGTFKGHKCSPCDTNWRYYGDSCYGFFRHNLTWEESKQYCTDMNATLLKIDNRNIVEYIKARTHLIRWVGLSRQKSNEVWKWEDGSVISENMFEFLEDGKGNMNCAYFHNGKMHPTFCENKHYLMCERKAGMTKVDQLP

Assay [1] has as its target T1, ^2E3PDPN overexpressed on HCT 116 cells (human) (UniProt Q86YL7).
T1 sequence: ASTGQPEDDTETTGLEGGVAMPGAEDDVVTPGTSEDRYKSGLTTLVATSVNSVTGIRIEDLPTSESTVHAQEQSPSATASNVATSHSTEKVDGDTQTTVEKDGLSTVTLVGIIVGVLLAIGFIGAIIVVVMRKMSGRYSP
Nature of the assay: flow cytometry on cells; mutPlGF-CLEC2 in HEK-293T conditioned medium on HCT 116 cells expressing CA9^NS or ^2E3PDPN, incubation at 4 °C, then staining. A general note: In flow cytometry, cells or beads pass a laser one at a time.

Assay [2] deals with T1, ^2E3PDPN overexpressed on HCT 116 cells (human).

Read-outs that look alike come from different tables or passages of the source. These are yes or no findings as the source states them, for the method shown. Some binding calls cover weakened binding; strength is not graded here.

“CLEC2 construct from the recombinant library (mutPlGF-CLEC2) (from UniProt Q9P126 55-229) (domain or fragment)”: the values for the binding result in assay [1] and in assay [2] were “binds” and “no binding”, respectively.
